US10064926B2, “Peptides and combination of peptides for use in immunotherapy against hepatocellular carcinoma (HCC) and other cancers” (Immatics biotechnologies GmbH, priority 2014, dated 2018)

What was measured:
[1] = tested on: primary HCC tissue samples; assay: Identification and label-free LC-MS relative quantitation of HLA-presented peptides (presentation profiles/scores), HCC versus normal tissues; parameters: species or system human; key to PeptidePresentation (presentation score): very highly over-presented on tumors compared to a panel of normal tissues (+++); highly over-presented on tumors compared to a panel of normal tissues (++); over-presented on tumors compared to a panel of normal tissues (+); conditions: for PeptidePresentation (presentation score): HCC tumors compared to a panel of normal tissues
[2] = tested on: tumor samples of other tumor types; assay: Over-presentation of peptides on additional tumor types versus normal tissues (LC-MS); parameters: species or system human; conditions: over-presentation on more than 5% of the measured tumor samples, or presentation on more than 5% with ratio of geometric means tumor vs normal tissues larger than 3
[3] = tested on: source genes of the peptides in HCC and normal tissues; assay: mRNA expression profiling of source genes by Affymetrix microarray (expression scores); parameters: species or system human; key: very highly overexpressed in tumors compared to a panel of normal tissues (+++); highly overexpressed in tumors compared to a panel of normal tissues (++); overexpressed in tumors compared to a panel of normal tissues (+); conditions: source gene mRNA in tumors compared to a panel of normal tissues

## 1: peptide found in APOB (gene looked up) (VMAPFTMTI; listed as Homo sapiens) [compound 1]
[1]
  PeptidePresentation (presentation score): +++
[2]
  Additional Entities (additional tumor types on which the peptide was found over-presented): SCLC, Melanoma, NHL
  Other relevant organs/diseases (additional tumor types on which the peptide was found over-presented): Pancreas
[3]
  Gene Expression (expression score): +++

## 4: peptide found in APOB (gene looked up) (KLQDFSDQL; listed as Homo sapiens) [compound 4]
[1]
  PeptidePresentation (presentation score): +++
[3]
  Gene Expression (expression score): +++

## 5: peptide found in APOB (gene looked up) (ALVEQGFTV; listed as Homo sapiens) [compound 5]
[1]
  PeptidePresentation (presentation score): +++
[3]
  Gene Expression (expression score): +++

## 7: peptide found in APOB (gene looked up) (ALVDTLKFV; listed as Homo sapiens) [compound 7]
[1]; FIG. 1 presentation profiles
  over-presentation in HCC compared with normal tissues: over-presentation
[1]
  PeptidePresentation (presentation score): +++
[3]
  Gene Expression (expression score): +++

## 10: peptide found in USO1 (gene looked up) (SLLEEFDFHV; listed as Homo sapiens) [compound 10]
[1]
  PeptidePresentation (presentation score): +++
[2]
  Additional Entities (additional tumor types on which the peptide was found over-presented): NSCLC, BRCA, OC, Esophageal Cancer, Uterine Cancer
  Other relevant organs/diseases (additional tumor types on which the peptide was found over-presented): Kidney
[3]
  Gene Expression (expression score): +

## 19: peptide found in APOB (gene looked up) (FLEETKATV; listed as Homo sapiens) [compound 19]
[1]
  PeptidePresentation (presentation score): +++
[3]
  Gene Expression (expression score): +++

## 20: peptide found in APOB (gene looked up) (KLSNVLQQV; listed as Homo sapiens) [compound 20]
[1]
  PeptidePresentation (presentation score): +++
[2]
  Additional Entities (additional tumor types on which the peptide was found over-presented): SCLC
[3]
  Gene Expression (expression score): +++

## 21: peptide found in APOB (gene looked up) (QLIEVSSPITL; listed as Homo sapiens) [compound 21]
[1]
  PeptidePresentation (presentation score): +++
[3]
  Gene Expression (expression score): +++

## 25: peptide found in APOB (gene looked up) (SLDGKAALTEL; listed as Homo sapiens) [compound 25]
[1]
  PeptidePresentation (presentation score): +++
[3]
  Gene Expression (expression score): +++

## 27: peptide found in APOB (gene looked up) (TLPDFRLPEI; listed as Homo sapiens) [compound 27]
[1]
  PeptidePresentation (presentation score): +++
[3]
  Gene Expression (expression score): +++

## 28: peptide found in APOB (gene looked up) (TLQDHLNSL; listed as Homo sapiens) [compound 28]
[1]
  PeptidePresentation (presentation score): +++
[3]
  Gene Expression (expression score): +++

## 29: peptide found in APOB (gene looked up) (YIQDEINTI; listed as Homo sapiens) [compound 29]
[1]
  PeptidePresentation (presentation score): +++
[3]
  Gene Expression (expression score): +++

## 41: peptide found in F9 (gene looked up) (ALLELDEPLVL; listed as Homo sapiens) [compound 41]
[2]
  Other relevant organs/diseases (additional tumor types on which the peptide was found over-presented): Pancreas
[3]
  Gene Expression (expression score): +++

## 42: peptide found in ACSL4 (gene looked up) (ALLGGNVRMML; listed as Homo sapiens) [compound 42]
[1]
  PeptidePresentation (presentation score): +++
[3]
  Gene Expression (expression score): +

## 49: peptide found in APOB (gene looked up) (FLYPEKDEPT; listed as Homo sapiens) [compound 49]
[1]
  PeptidePresentation (presentation score): +++
[3]
  Gene Expression (expression score): +++

## 61: peptide found in APOB (gene looked up) (KIADFELPTI; listed as Homo sapiens) [compound 61]
[1]
  PeptidePresentation (presentation score): +++
[3]
  Gene Expression (expression score): +++

## 66: peptide found in CYP2E1 (gene looked up) (KLHEEIDRV; listed as Homo sapiens) [compound 66]
[1]
  PeptidePresentation (presentation score): ++
[3]
  Gene Expression (expression score): +++

## 67: peptide found in APOB (gene looked up) (KLKETIQKL; listed as Homo sapiens) [compound 67]
[1]
  PeptidePresentation (presentation score): +++
[3]
  Gene Expression (expression score): +++

## 82: peptide found in APOB (gene looked up) (NVFDGLVRV; listed as Homo sapiens) [compound 82]
[1]
  PeptidePresentation (presentation score): +
[3]
  Gene Expression (expression score): +++

## 83: peptide found in ABCB11 (gene looked up) (QLHDFVMSL; listed as Homo sapiens) [compound 83]
[1]
  PeptidePresentation (presentation score): +++
[3]
  Gene Expression (expression score): +++

## 84: peptide found in ABCC2 (gene looked up) (QLTPVLVSV; listed as Homo sapiens) [compound 84]
[1]
  PeptidePresentation (presentation score): ++
[3]
  Gene Expression (expression score): ++

## 93: peptide found in CYP2E1 (gene looked up) (RLYTMDGITV; listed as Homo sapiens) [compound 93]
[1]
  PeptidePresentation (presentation score): +++
[3]
  Gene Expression (expression score): +++

## 109: peptide found in APOB (gene looked up) (TLYALSHAV; listed as Homo sapiens) [compound 109]
[1]
  PeptidePresentation (presentation score): +
[3]
  Gene Expression (expression score): +++

## 110: peptide found in CRP (gene looked up) (TVGGSEILFEV; listed as Homo sapiens) [compound 110]
[2]
  Additional Entities (additional tumor types on which the peptide was found over-presented): SCLC, Gallbladder Cancer, Bile Duct Cancer
[3]
  Gene Expression (expression score): +++

## 113: peptide found in APOB (gene looked up) (VLMDKLVEL; listed as Homo sapiens) [compound 113]
[1]
  PeptidePresentation (presentation score): ++
[3]
  Gene Expression (expression score): +++

## 117: peptide found in SLC16A1 (gene looked up) (YAFPKSITV; listed as Homo sapiens) [compound 117]
[1]
  PeptidePresentation (presentation score): +++
[3]
  Gene Expression (expression score): +

## 120: peptide found in TF (gene looked up) (YLGEEYVKA; listed as Homo sapiens) [compound 120]
[1]
  PeptidePresentation (presentation score): +++
[3]
  Gene Expression (expression score): +++

## 124: peptide found in APOB (gene looked up) (LLIDVVTYL; listed as Homo sapiens) [compound 124]
[1]
  PeptidePresentation (presentation score): +++
[3]
  Gene Expression (expression score): +++

## 126: peptide found in APOB (gene looked up) (TLLDSPIKV; listed as Homo sapiens) [compound 126]
[1]
  PeptidePresentation (presentation score): ++
[3]
  Gene Expression (expression score): +++

## 132: peptide found in CYP27A1 (gene looked up) (ALHEEVVGV; listed as Homo sapiens) [compound 132]
[1]
  PeptidePresentation (presentation score): +
[3]
  Gene Expression (expression score): ++

## 141: peptide found in GPR107 (gene looked up) (AMGEKSFSV; listed as Homo sapiens) [compound 141]
[2]
  Additional Entities (additional tumor types on which the peptide was found over-presented): Melanoma
  Other relevant organs/diseases (additional tumor types on which the peptide was found over-presented): Brain
[3]
  Gene Expression (expression score): +

## 142: peptide found in AQP9 (gene looked up) (AVIGGLIYV; listed as Homo sapiens) [compound 142]
[1]
  PeptidePresentation (presentation score): ++
[3]
  Gene Expression (expression score): +++

## 149: peptide found in ARG1 (gene looked up) (GLLSGLDIMEV; listed as Homo sapiens) [compound 149]
[2]
  Additional Entities (additional tumor types on which the peptide was found over-presented): SCLC
[3]
  Gene Expression (expression score): +++

## 217: peptide found in APOB (gene looked up) (DYIPYVFKL; listed as Homo sapiens) [compound 217]
[1]
  PeptidePresentation (presentation score): +++
[3]
  Gene Expression (expression score): +++

## 218: peptide found in APOB (gene looked up) (VYQGAIRQI; listed as Homo sapiens) [compound 218]
[1]
  PeptidePresentation (presentation score): +
[3]
  Gene Expression (expression score): +++

## 259: peptide found in CPSF1 (gene looked up) (TLITDGMRSV; listed as Homo sapiens) [compound 259]
[2]
  Additional Entities (additional tumor types on which the peptide was found over-presented): RCC, CRC, OC, Esophageal Cancer, Urinary bladder cancer, Gallbladder Cancer, Bile Duct Cancer, PC
  Other relevant organs/diseases (additional tumor types on which the peptide was found over-presented): Brain
[3]
  Gene Expression (expression score): +

## 286: peptide found in MIA3 (gene looked up) (KVLDKVFRA; listed as Homo sapiens) [compound 286]
[1]
  PeptidePresentation (presentation score): +
[3]
  Gene Expression (expression score): +

## 318: peptide found in CPS1 (gene looked up) (KLNEINEKI; listed as Homo sapiens) [compound 318]
[1]
  PeptidePresentation (presentation score): +
[3]
  Gene Expression (expression score): +++

## 320: peptide found in TARS1 (gene looked up) (GLADNTVIAKV; listed as Homo sapiens) [compound 320]
[1]
  PeptidePresentation (presentation score): +
[3]
  Gene Expression (expression score): +

For some assays here: For expression read-outs the peptide stands for its source gene, whose mRNA was measured; the gene is not named for every peptide.
